# US20240099996A1, “METHODS FOR TREATING CANCER” (Radius Pharmaceuticals, Inc., priority 2015, published 2024)
# For at least one compound, name, drawing or mass did not settle the structure.
# Tests used:
# [1] = BMD in ovariectomized rats, dual emission x-ray absorptiometry; format: in vivo; conditions: OVX rats, 4 weeks; E2 0.01 mg/kg; RAD1901 0.1-3 mg/kg
# Procedure: As a model of post-menopausal bone loss, ovariectomy was performed on anesthetized adult female Sprague-Dawley rats, with sham surgery as a control. […] Animals in the sham surgery group were vehicle treated. All animals were euthanized by carbon dioxide inhalation 24 hours after the final dose. Bone mineral density was assessed at baseline and again after 4 weeks of treatment using PIXImus dual emission x-ray absorptiometry.
# uterine tissue = test: Uterotropic activity in immature rats (uterine weight, histology, C3 expression); format: in vivo
# Procedure: Twenty-four hours after the final dose, all animals were euthanized by carbon dioxide inhalation. Body weights and wet uterine weights were recorded for each animal.
# Fresh uterine tissue from each rat was fixed in 4% paraformaldehyde, dehydrated with ethanol, and embedded into JB4 plastic resin. Sections were cut at […] and stained with 0.1% Toluidine Blue O. Thickness of the endometrial epithelium was measured using a Zeiss Axioskop 40 microscope using the Spot Advanced program; the mean of 9 measurements per specimen was calculated.
# To determine relative expression levels of C3 in the treated uterine tissue, RNA was extracted from the remaining tissue using the Micro to Midi Total RNA Purification Kit (Invitrogen, Carlsbad, CA) according to the manufacturer's instructions. RNA was quantified, and equal amounts were reverse-transcribed using the High Capacity cDNA Archive Kit (Applied Biosystems, Foster City, CA).
# Quantitative PCR was performed using the ABI Prism 7300 System (Applied Biosystems). PCR was done using the Taqman Universal Master Mix with probe sets for C3 and for the 18S ribosomal RNA as a reference gene. Thermal cycling conditions comprised an initial denaturation step at 95° C. for 10 min, followed by 40 cycles at 95° C. for 15 second and 60° C. for 1 minute.
# Relative gene expression was determined by normalizing each sample to the endogenous control (18S) and comparing with a calibrator (vehicle). Relative gene expression was determined using the following equation: 2-ΔΔCt (where Ct=cycle threshold or the cycle number at which PCR product was first detected, ΔCt=normalized sample value, and ΔΔCt=normalized difference between dosed subjects and the vehicle). Five replicate gene expression determinations were conducted for each dose, within each study.
structure (smiles),measurement,setting,value
"C[C@]12CC[C@@H]3c4ccc(O)cc4CC[C@H]3[C@@H]1CC[C@@H]2O [E2, estradiol]","ovariectomy-induced bone loss, femur and spine",[1],prevention of bone loss
same,endometrial epithelial thickness,"uterine tissue; E2 0.01 and 0.3 mg/kg, tamoxifen 1 mg/kg, raloxifene 3 mg/kg, RAD1901 up to 100 mg/kg",statistically significant increase in endometrial epithelial thickness
same,uterine C3 gene expression,"uterine tissue; RAD1901 0.3 to 100 mg/kg, E2, tamoxifen, raloxifene",significantly increased the expression
same,uterine wet weight vs vehicle,"uterine tissue; q.d. 3 days, E2 0.01 mg/kg, raloxifene 3 mg/kg, tamoxifen 1 mg/kg, RAD1901 0.3-100 mg/kg",significant increases in uterine wet weight
